# Assay results from PMC4778918, “Signal Transduction at the Domain Interface of Prokaryotic Pentameric Ligand-Gated Ion Channels” (PLoS Biology, 2016).
# Read-outs that look alike come from different tables or passages of the source.
# System: ELIC R91A/F116A
# Format: binding, Erwinia chrisanthemi
# [1] = ITC, acetylcholine, Molar Ratio 0.11
# [2] = ITC, acetylcholine, Molar Ratio 0.55
# [3] = ITC, acetylcholine, Molar Ratio 0.99
# [4] = ITC, acetylcholine, Molar Ratio 1.42
# [5] = ITC, acetylcholine, Molar Ratio 1.85
# [6] = ITC, acetylcholine, Molar Ratio 2.28
# [7] = ITC, acetylcholine, Molar Ratio 2.69
# [8] = ITC, acetylcholine, Molar Ratio 3.11
# [9] = ITC, acetylcholine, Molar Ratio 3.52
# [10] = ITC, acetylcholine, Molar Ratio 4.33
# [11] = ITC, acetylcholine, Molar Ratio 4.73
# [12] = ITC, acetylcholine, Molar Ratio 5.12
# [13] = ITC, acetylcholine, Molar Ratio 5.51
# [14] = ITC, acetylcholine, Molar Ratio 5.89
# [15] = ITC, acetylcholine, Molar Ratio 6.27
# [16] = ITC, acetylcholine, Molar Ratio 6.65
# [17] = ITC, acetylcholine, Molar Ratio 7.02
# [18] = ITC, acetylcholine, Molar Ratio 7.39
# [19] = ITC, acetylcholine, Molar Ratio 7.84
# [20] = ITC, acetylcholine, Molar Ratio 8.20
# [21] = ITC, acetylcholine, Molar Ratio 8.55
# [22] = ITC, acetylcholine, Molar Ratio 8.90
# [23] = ITC, acetylcholine, Molar Ratio 9.24
# [24] = ITC, acetylcholine, Molar Ratio 9.58
# [25] = ITC, acetylcholine, Molar Ratio 9.91
# [26] = ITC, acetylcholine, Molar Ratio 10.25
# [27] = ITC, acetylcholine, Molar Ratio 10.57
# [28] = ITC, acetylcholine, Molar Ratio 10.89
# [29] = ITC, acetylcholine, Molar Ratio 11.21
# [30] = ITC, acetylcholine, Molar Ratio 11.52
# [31] = ITC, acetylcholine, Molar Ratio 11.83
# [32] = ITC, acetylcholine, Molar Ratio 12.14
# [33] = ITC, acetylcholine, Molar Ratio 12.44
# [34] = ITC, acetylcholine, Molar Ratio 12.73
# [35] = ITC, acetylcholine, Molar Ratio 13.02
# [36] = ITC, acetylcholine, Molar Ratio 13.31
# [37] = ITC, propylamine, Molar Ratio 0.44
# [38] = ITC, propylamine, Molar Ratio 0.80
# [39] = ITC, propylamine, Molar Ratio 1.52
# [40] = ITC, propylamine, Molar Ratio 2.26
# [41] = ITC, propylamine, Molar Ratio 2.63
# [42] = ITC, propylamine, Molar Ratio 3.01
# [43] = ITC, propylamine, Molar Ratio 3.39
# [44] = ITC, propylamine, Molar Ratio 3.77
# [45] = ITC, propylamine, Molar Ratio 4.16
# [46] = ITC, propylamine, Molar Ratio 4.55
# [47] = ITC, propylamine, Molar Ratio 4.95
# [48] = ITC, propylamine, Molar Ratio 5.34
# [49] = ITC, propylamine, Molar Ratio 6.15
# [50] = ITC, propylamine, Molar Ratio 6.56
# [51] = ITC, propylamine, Molar Ratio 6.97
# [52] = ITC, propylamine, Molar Ratio 7.39
# [53] = ITC, propylamine, Molar Ratio 8.33
# [54] = ITC, propylamine, Molar Ratio 8.76
# [55] = ITC, propylamine, Molar Ratio 9.19
# [56] = ITC, propylamine, Molar Ratio 9.62
# [57] = ITC, propylamine, Molar Ratio 10.06
# [58] = ITC, propylamine, Molar Ratio 10.94
# [59] = ITC, propylamine, Molar Ratio 11.39
# [60] = ITC, propylamine, Molar Ratio 11.84
# [61] = ITC, propylamine, Molar Ratio 12.30
# [62] = ITC, propylamine, Molar Ratio 12.75
# [63] = ITC, propylamine, Molar Ratio 13.21
# [64] = ITC, propylamine, Molar Ratio 13.68
# [65] = ITC, propylamine, Molar Ratio 14.15
# [66] = ITC, propylamine, Molar Ratio 14.62
# [67] = ITC, propylamine, Molar Ratio 15.09
# [68] = ITC, propylamine, Molar Ratio 15.57
# [69] = ITC, propylamine, Molar Ratio 16.05
smiles,measurement,setting,value
CC(=O)OCC[N+](C)(C)C [acetylcholine],kcal/mol (fit),,-9.26 kcal/mol
same,kcal/mol (meas.),,-9.00 kcal/mol
same,kcal/mol (fit),[1],-51.59 kcal/mol
same,kcal/mol (meas.),[1],-51.95 kcal/mol
same,kcal/mol (fit),[2],-39.57 kcal/mol
same,kcal/mol (meas.),[2],-38.33 kcal/mol
same,kcal/mol (fit),[3],-31.18 kcal/mol
same,kcal/mol (meas.),[3],-31.97 kcal/mol
same,kcal/mol (fit),[4],-25.11 kcal/mol
same,kcal/mol (meas.),[4],-24.37 kcal/mol
same,kcal/mol (fit),[5],-20.59 kcal/mol
same,kcal/mol (meas.),[5],-21.37 kcal/mol
same,kcal/mol (fit),[6],-17.15 kcal/mol
same,kcal/mol (meas.),[6],-19.57 kcal/mol
same,kcal/mol (fit),[7],-14.48 kcal/mol
same,kcal/mol (meas.),[7],-13.62 kcal/mol
same,kcal/mol (fit),[8],-12.35 kcal/mol
same,kcal/mol (meas.),[8],-11.58 kcal/mol
same,kcal/mol (fit),[9],-10.65 kcal/mol
same,kcal/mol (meas.),[9],-9.76 kcal/mol
same,kcal/mol (fit),[10],-8.11 kcal/mol
same,kcal/mol (meas.),[10],-7.34 kcal/mol
same,kcal/mol (fit),[11],-7.15 kcal/mol
same,kcal/mol (meas.),[11],-8.22 kcal/mol
same,kcal/mol (fit),[12],-6.34 kcal/mol
same,kcal/mol (meas.),[12],-6.86 kcal/mol
same,kcal/mol (fit),[13],-5.66 kcal/mol
same,kcal/mol (meas.),[13],-6.37 kcal/mol
same,kcal/mol (fit),[14],-5.07 kcal/mol
same,kcal/mol (meas.),[14],-4.30 kcal/mol
same,kcal/mol (fit),[15],-4.56 kcal/mol
same,kcal/mol (meas.),[15],-3.95 kcal/mol
same,kcal/mol (fit),[16],-4.12 kcal/mol
same,kcal/mol (meas.),[16],-3.80 kcal/mol
same,kcal/mol (fit),[17],-3.74 kcal/mol
same,kcal/mol (meas.),[17],-3.52 kcal/mol
same,kcal/mol (fit),[18],-3.40 kcal/mol
same,kcal/mol (meas.),[18],-3.27 kcal/mol
same,kcal/mol (fit),[19],-3.03 kcal/mol
same,kcal/mol (meas.),[19],-3.07 kcal/mol
same,kcal/mol (fit),[20],-2.78 kcal/mol
same,kcal/mol (meas.),[20],-2.61 kcal/mol
same,kcal/mol (fit),[21],-2.55 kcal/mol
same,kcal/mol (meas.),[21],-2.48 kcal/mol
same,kcal/mol (fit),[22],-2.34 kcal/mol
same,kcal/mol (meas.),[22],-2.53 kcal/mol
same,kcal/mol (fit),[23],-2.16 kcal/mol
same,kcal/mol (meas.),[23],-2.32 kcal/mol
same,kcal/mol (fit),[24],-1.99 kcal/mol
same,kcal/mol (meas.),[24],-2.43 kcal/mol
same,kcal/mol (fit),[25],-1.84 kcal/mol
same,kcal/mol (meas.),[25],-1.89 kcal/mol
same,kcal/mol (fit),[26],-1.70 kcal/mol
same,kcal/mol (meas.),[26],-2.94 kcal/mol
same,kcal/mol (fit),[27],-1.58 kcal/mol
same,kcal/mol (meas.),[27],-1.59 kcal/mol
same,kcal/mol (fit),[28],-1.46 kcal/mol
same,kcal/mol (meas.),[28],-1.01 kcal/mol
same,kcal/mol (fit),[29],-1.36 kcal/mol
same,kcal/mol (meas.),[29],-1.30 kcal/mol
same,kcal/mol (fit),[30],-1.26 kcal/mol
same,kcal/mol (meas.),[30],-1.16 kcal/mol
same,kcal/mol (fit),[31],-1.17 kcal/mol
same,kcal/mol (meas.),[31],-1.01 kcal/mol
same,kcal/mol (fit),[32],-1.09 kcal/mol
same,kcal/mol (meas.),[32],-1.06 kcal/mol
same,kcal/mol (fit),[33],-1.01 kcal/mol
same,kcal/mol (meas.),[33],-0.72 kcal/mol
same,kcal/mol (fit),[34],-0.94 kcal/mol
same,kcal/mol (meas.),[34],-0.57 kcal/mol
same,kcal/mol (fit),[35],-0.88 kcal/mol
same,kcal/mol (meas.),[35],-0.43 kcal/mol
same,kcal/mol (fit),[36],-0.82 kcal/mol
same,kcal/mol (meas.),[36],-1.03 kcal/mol
CCCN [propylamine],kcal/mol (fit),[37],1000.43 kcal/mol
same,kcal/mol (meas.),[37],1105.90 kcal/mol
same,kcal/mol (fit),[38],791.05 kcal/mol
same,kcal/mol (meas.),[38],717.48 kcal/mol
same,kcal/mol (fit),[39],457.90 kcal/mol
same,kcal/mol (meas.),[39],421.63 kcal/mol
same,kcal/mol (fit),[40],265.02 kcal/mol
same,kcal/mol (meas.),[40],260.36 kcal/mol
same,kcal/mol (fit),[41],205.92 kcal/mol
same,kcal/mol (meas.),[41],217.55 kcal/mol
same,kcal/mol (fit),[42],162.73 kcal/mol
same,kcal/mol (meas.),[42],157.06 kcal/mol
same,kcal/mol (fit),[43],130.74 kcal/mol
same,kcal/mol (meas.),[43],179.77 kcal/mol
same,kcal/mol (fit),[44],106.66 kcal/mol
same,kcal/mol (meas.),[44],125.91 kcal/mol
same,kcal/mol (fit),[45],88.23 kcal/mol
same,kcal/mol (meas.),[45],111.41 kcal/mol
same,kcal/mol (fit),[46],73.89 kcal/mol
same,kcal/mol (meas.),[46],95.33 kcal/mol
same,kcal/mol (fit),[47],62.57 kcal/mol
same,kcal/mol (meas.),[47],70.17 kcal/mol
same,kcal/mol (fit),[48],53.50 kcal/mol
same,kcal/mol (meas.),[48],80.01 kcal/mol
same,kcal/mol (fit),[49],40.10 kcal/mol
same,kcal/mol (meas.),[49],51.72 kcal/mol
same,kcal/mol (fit),[50],35.08 kcal/mol
same,kcal/mol (meas.),[50],60.19 kcal/mol
same,kcal/mol (fit),[51],30.88 kcal/mol
same,kcal/mol (meas.),[51],37.21 kcal/mol
same,kcal/mol (fit),[52],27.33 kcal/mol
same,kcal/mol (meas.),[52],32.66 kcal/mol
same,kcal/mol (fit),[53],21.10 kcal/mol
same,kcal/mol (meas.),[53],25.36 kcal/mol
same,kcal/mol (fit),[54],18.92 kcal/mol
same,kcal/mol (meas.),[54],18.69 kcal/mol
same,kcal/mol (fit),[55],17.03 kcal/mol
same,kcal/mol (meas.),[55],11.66 kcal/mol
same,kcal/mol (fit),[56],15.36 kcal/mol
same,kcal/mol (meas.),[56],15.49 kcal/mol
same,kcal/mol (fit),[57],13.89 kcal/mol
same,kcal/mol (meas.),[57],9.31 kcal/mol
same,kcal/mol (fit),[58],11.43 kcal/mol
same,kcal/mol (meas.),[58],11.84 kcal/mol
same,kcal/mol (fit),[59],10.39 kcal/mol
same,kcal/mol (meas.),[59],-0.19 kcal/mol
same,kcal/mol (fit),[60],9.45 kcal/mol
same,kcal/mol (meas.),[60],7.58 kcal/mol
same,kcal/mol (fit),[61],8.60 kcal/mol
same,kcal/mol (meas.),[61],8.19 kcal/mol
same,kcal/mol (fit),[62],7.84 kcal/mol
same,kcal/mol (meas.),[62],-7.21 kcal/mol
same,kcal/mol (fit),[63],7.14 kcal/mol
same,kcal/mol (meas.),[63],-4.30 kcal/mol
same,kcal/mol (fit),[64],6.50 kcal/mol
same,kcal/mol (meas.),[64],0.39 kcal/mol
same,kcal/mol (fit),[65],5.91 kcal/mol
same,kcal/mol (meas.),[65],-4.07 kcal/mol
same,kcal/mol (fit),[66],5.37 kcal/mol
same,kcal/mol (meas.),[66],-6.05 kcal/mol
same,kcal/mol (fit),[67],4.87 kcal/mol
same,kcal/mol (meas.),[67],-1.35 kcal/mol
same,kcal/mol (fit),[68],4.41 kcal/mol
same,kcal/mol (meas.),[68],-2.02 kcal/mol
same,kcal/mol (fit),[69],3.98 kcal/mol
same,kcal/mol (meas.),[69],-1.01 kcal/mol
